Record: PubChem BioAssay AID652243 (Drosophila RNAi Screening Center, 2013)
Purpose: 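Fly regulators of androgen-dependent reporter output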 (primary screen). System: Drosophila S2R+ cells. Knock-down reagent: long dsRNA against Drosophila genes. Timing: 72 h (48 h, then 24 h hormone). Challenge: synthetic androgen R1881 at 10 nM for 24 h. Detection: 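Firefly light from an androgen-responsive reporter and Renilla control light per well, raw and unnormalised, for each of two replicates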. Scale: firefly reporter light: higher = more light from androgen-responsive reporter; Renilla control light: higher = more constitutive control signal (cell number, transfection). Call rule: 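Hit when the log firefly-to-Renilla ratio dropped or increased by a fixed fold versus the mean of GFP or LacZ controls across duplicate plates; lowering cut given as 1.5 and as 3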. Calls: active = hit: reporter lowered or raised; inactive = no hit.
The screen tested about 24,000 reagents; shown is an unselected part of those with a known target gene and a result. Of all reagents, 246 (1%) were called active. 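Plates not normalised; calls are printed but the firefly/Renilla ratio behind them is not deposited; fold cut for lowering reported inconsistently.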 Raw values vary from plate to plate and are shown uncorrected. Reagents against one gene are numbered here. Names joined by + are all predicted targets of the reagent. The record does not give: the amount of reagent.

| gene knocked down | reagent | firefly reporter light, replicate 1 | firefly reporter light, replicate 2 | Renilla control light, replicate 1 | Renilla control light, replicate 2 | call |
| --- | --- | --- | --- | --- | --- | --- |
| Ten-m (GeneID 40464) | 1 | 1.24e5 | 1.48e5 | 1.50e6 | 1.73e6 | inactive |
| Ten-m (GeneID 40464) | 2 | 2216 | 1427 | – | – | inactive |
| Cyp6u1 (GeneID 35608) | 1 | 6.57e5 | 9.58e5 | 1.44e6 | 1.95e6 | inactive |
| Cyp6u1 (GeneID 35608) | 2 | 2.65e5 | 2.23e5 | 6.81e5 | 6.35e5 | inactive |
| atk (GeneID 40266) | 1 | 1.67e5 | 2.28e5 | 5.13e5 | 5.61e5 | inactive |
| atk (GeneID 40266) | 2 | 2.80e5 | 1.41e5 | 2.21e6 | 2.06e6 | inactive |
| atk (GeneID 40266) | 3 | 2.65e5 | 2.73e5 | 8.21e5 | 7.98e5 | inactive |
| CG2931 (GeneID 40673) | 1 | 60121 | 46843 | 1.43e6 | 1.23e6 | inactive |
| CG4891 (GeneID 34948) | 1 | 8.46e5 | 9.45e5 | 1.64e6 | 1.89e6 | inactive |
| CG4891 (GeneID 34948) | 2 | 6.49e5 | 6.37e5 | 7.45e5 | 8.64e5 | inactive |
| CG32318 + Klp61F + Psf1 | 1 | 2.24e5 | 2.54e5 | 3.68e5 | 3.77e5 | inactive |
| CG17287 (GeneID 36939) | 1 | 54819 | 55792 | 1.10e6 | 1.10e6 | inactive |
| Hml (GeneID 39529) | 1 | 1.51e5 | 1.74e5 | 1.25e6 | 1.94e6 | inactive |
| CG31244 (GeneID 326129) | 1 | 4.39e5 | 3.46e5 | 2.25e6 | 2.57e6 | inactive |
| simj (GeneID 39212) | 1 | 4.58e5 | 5.06e5 | 7.78e5 | 7.76e5 | inactive |
| simj (GeneID 39212) | 2 | 2.13e5 | 1.97e5 | 7.07e5 | 4.50e5 | inactive |
| simj (GeneID 39212) | 3 | 8.85e5 | 8.09e5 | 1.84e6 | 1.49e6 | inactive |
| ttm3 (GeneID 35437) | 1 | 1.81e5 | 2.16e5 | 1.40e6 | 9.07e5 | inactive |
| DUBAI (GeneID 36361) | 1 | 8.03e5 | 2.06e5 | 7.15e5 | 5.60e5 | inactive |
| CG31769 (GeneID 318934) | 1 | 2.63e5 | 3.03e5 | 5.49e5 | 76962 | inactive |
| CheB53b (GeneID 3346204) | 1 | 1.03e5 | 1.94e5 | 2.85e5 | 4.41e5 | inactive |
| CheB53b (GeneID 3346204) | 2 | 3.42e5 | 6.42e5 | 1.04e6 | 1.69e6 | inactive |
| Bet5 (GeneID 43590) | 1 | 2.08e5 | 2.24e5 | 2.19e6 | 2.28e6 | inactive |
| Pex12 (GeneID 33256) | 1 | 82886 | 82670 | 6.72e5 | 6.89e5 | inactive |
| Pex12 (GeneID 33256) | 2 | 2.35e5 | 2.58e5 | 5.58e5 | 5.66e5 | inactive |
| Adck5 (GeneID 39260) | 1 | 2.54e5 | 1.65e5 | 1.87e6 | 1.59e6 | inactive |
| Adck5 (GeneID 39260) | 2 | – | – | – | – | inactive |
| Adck5 (GeneID 39260) | 3 | – | – | – | – | inactive |
| CG8858 (GeneID 36319) | 1 | 2.45e5 | 1.86e5 | 1.43e6 | 1.41e6 | inactive |
| CG30355 (GeneID 246561) | 1 | 6.96e5 | 5.94e5 | 8.98e5 | 7.32e5 | inactive |
| CG1394 (GeneID 32059) | 1 | 41477 | 26200 | 1.31e6 | 1.49e6 | inactive |
| CG1394 (GeneID 32059) | 2 | 7.51e5 | 8.48e5 | 8.88e5 | 9.33e5 | inactive |
| CG30103 (GeneID 36969) | 1 | 1.09e5 | 98574 | 1.64e6 | 1.64e6 | inactive |
| CG30103 (GeneID 36969) | 2 | 7.54e5 | 4.83e5 | 1.50e6 | 1.59e6 | inactive |
| Ucp4C (GeneID 33832) | 1 | 2.23e5 | 2.87e5 | 1.57e6 | 2.30e6 | inactive |
| Ucp4C (GeneID 33832) | 2 | 4.25e5 | 4.11e5 | 2.98e5 | 6.32e5 | inactive |
| Pepck1 (GeneID 37131) | 1 | 1.47e5 | 1.90e5 | 3.55e6 | 2.48e6 | inactive |
| Pepck1 (GeneID 37131) | 2 | 2.62e5 | 2.36e5 | 6.81e5 | 5.58e5 | inactive |
| CG14625 (GeneID 31066) | 1 | 1.27e5 | 1.70e5 | 2.16e6 | 1.86e6 | inactive |
| CG14625 (GeneID 31066) | 2 | 7.51e5 | 9.02e5 | 9.44e5 | 8.30e5 | inactive |
| CG31221 (GeneID 42325) | 1 | 1.67e5 | 2.66e5 | 2.66e6 | 3.57e6 | inactive |
| CG31221 (GeneID 42325) | 2 | 2.69e5 | 1.91e5 | 2.91e6 | 2.67e6 | inactive |
| CG31221 (GeneID 42325) | 3 | 5.88e5 | 4.80e5 | 4.78e5 | 4.25e5 | inactive |
| CG16815 (GeneID 34725) | 1 | 1.36e5 | 1.67e5 | 1.53e6 | 1.57e6 | inactive |
| CG16815 (GeneID 34725) | 2 | 3.96e5 | 2.79e5 | 1.21e6 | 8.90e5 | inactive |
| ubl (GeneID 35592) | 1 | 2.87e5 | 2.23e5 | 1.71e6 | 1.40e6 | inactive |
| Dhc93AB (GeneID 42485) | 1 | 4.29e5 | 5.14e5 | 3.25e6 | 3.83e6 | inactive |
| Dhc93AB (GeneID 42485) | 2 | 6.20e5 | 4.21e5 | 1.94e6 | 1.97e6 | inactive |
| tplus3b + tplus3a | 1 | 3.10e5 | 2.36e5 | 6.13e5 | 5.81e5 | inactive |
| CG17991 (GeneID 43279) | 1 | 1.96e5 | 2.13e5 | 1.86e6 | 2.71e6 | inactive |
| CG34135 + CG11768 | 1 | 1.50e6 | 1.22e6 | 2.19e6 | 1.70e6 | inactive |
| lama (GeneID 38610) | 1 | 7.89e5 | 7.06e5 | 1.34e6 | 1.35e6 | inactive |
| CG13227 (GeneID 36179) | 1 | 2.57e5 | 3.49e5 | 7.97e5 | 1.88e6 | inactive |
| CG13227 (GeneID 36179) | 2 | 2.16e5 | 1.59e5 | 6.26e5 | 8.91e5 | inactive |
| CG8160 (GeneID 36701) | 1 | 3.16e5 | 3.65e5 | 2.52e6 | 2.46e6 | inactive |
| CG8160 (GeneID 36701) | 2 | 6.24e5 | 7.08e5 | 2.97e6 | 2.14e6 | inactive |
| CG8160 (GeneID 36701) | 3 | 5.27e5 | 6.13e5 | 5.99e5 | 7.31e5 | inactive |
| CG17486 (GeneID 3355138) | 1 | 7.41e5 | 7.69e5 | 1.14e6 | 1.04e6 | inactive |
